Measured values taken from paper PMC3798277.
No constants are given. Whether binding was seen depends on the method and setting. Binding seen in cells or lysates may run through a third protein.

Molecular target: CArG box binding factor A (CBF-A) p42 isoform (mouse (endogenous in testis))
Test: co-IP; cytoplasmic fraction of mouse testis lysate (adult; also 30 dpp), untreated or treated with 100 µg/ml RNase A, incubated overnight with anti-CBF-A antibodies SAK22 (p37 and p42) or ICCI (p42 only) or control IgGs; Protein A-Sepharose; immunoblots

binding: no binding
B1: MVH (Mouse Vasa Homolog/DDX4) (protein, UniProt Q61496 1-702)
chain: MGDEDWEAEILKPHVSSYVPVFEKDKYSSGANGDTFNRTSASSDIGESSKKENTSTTGGFGRGKGFGNRGFLNNKFEEGDSSGFWKESNNDCEDNQTRSRGFSKRGGCQDGNDSEASGPFRRGGRGSFRGCRGGFGLGRPNSESDQDQGTQRGGGLFGSRKPAASDSGNGDTYQSRSGSGRGGYKGLNEEVVTGSGKNSWKSETEGGESSDSQGPKVTYIPPPPPEDEDSIFAHYQTGINFDKYDTILVEVSGHDAPPAILTFEEANLCQTLNNNIAKAGYTKLTPVQKYSIPIVLAGRDLMACAQTGSGKTAAFLLPILAHMMRDGITASRFKELQEPECIIVAPTRELINQIYLEARKFSFGTCVRAVVIYGGTQFGHSVRQIVQGCNILCATPGRLMDIIGKEKIGLKQVKYLVLDEADRMLDMGFGPEMKKLISCPGMPSKEQRQTLLFSATFPEEIQRLAGDFLKSSYLFVAVGQVGGACRDVQQTILQVGQYSKREKLVEILRNIGDERTMVFVETKKKADFIATFLCQEKISTTSIHGDREQREREQALGDFRCGKCPVLVATSVAARGLDIENVQHVINFDLPSTIDEYVHRIGRTGRCGNTGRAISFFDTDSDNHLAQPLVKVLSDAQQDVPAWLEEIAFSTYVPPSFSSSTRGGAVFASVDTRKNYQGKHTLNTAGISSSQAPNPVDDESWD
